PMC5356540
These are yes or no findings as the source states them, for the method shown. In cells and extracts the contact can be indirect. Some binding calls cover weakened binding; strength is not graded here.

Protein sequences, listed by entry. Tags and fused reporters are not part of them.
UniProt P01108: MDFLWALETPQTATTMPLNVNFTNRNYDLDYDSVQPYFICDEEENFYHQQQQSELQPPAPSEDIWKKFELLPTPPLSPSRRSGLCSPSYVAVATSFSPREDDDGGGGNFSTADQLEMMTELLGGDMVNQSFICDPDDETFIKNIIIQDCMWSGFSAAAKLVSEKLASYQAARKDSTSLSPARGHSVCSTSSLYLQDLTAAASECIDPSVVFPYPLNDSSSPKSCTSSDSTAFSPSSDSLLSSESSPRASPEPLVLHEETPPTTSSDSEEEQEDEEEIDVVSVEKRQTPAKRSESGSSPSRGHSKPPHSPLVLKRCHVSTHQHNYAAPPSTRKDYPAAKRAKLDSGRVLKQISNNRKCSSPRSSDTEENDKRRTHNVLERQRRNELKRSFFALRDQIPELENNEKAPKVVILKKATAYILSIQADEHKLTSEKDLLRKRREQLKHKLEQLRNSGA

Target: c-Myc (mouse (endogenous in RAW264.7)) (UniProt P01108)
Assay: co-IP; co-immunoprecipitation in murine RAW264.7 cells; antibodies and conditions not described

binding: binds
B1: Myb Like, SWIRM And MPN Domains 1 (MYSM1) (protein, UniProt Q69Z66 1-819)
chain: MEAEEADVDVEGDVAAAAQPGNDESTASVFQDHYLDSTWRRENGCLPWTLDSTISDENRAIIEKMLLEEEYYLSNKSLPGKFWVNQKEDNKKYTNSLQKSSKAMVDSPAKPASHSVKWTVEEKELFEQGLAKFGRRWTKIATLLKSRTVLQVKSYARQYFKNKVKWDVEKETPTQKSSSDLQVKNKDDRTKAWAAACLRGSADPCLNAVKIEKLSDDEDVDITDELDELTSQTSQNSGSHLTLDVPNSKMYTTNQGELCQEGPLAKSSGESLQNVKQGEGEACSSSEIASWAEKQKSTDKNSAELNEKYNKVVEEHTLHRGEVREEAKHSPSPEPCERQDSSGNEMLLPPCQIEEENHEGEELKPPEQEVEIDRNVIQEEEKQAIPEFFEGRQTKTPERYLKIRNYILDQWEICKPKYLNKTSVRPGLKNCGDVNCIGRIHTYLELIGAINFGCEQAVYNRPQPLDKVRAADRKDAEAAYQLAWRLQSMRTRRRRVRDPWGNWCDAKDLEGQTFEHLSVEEMARRKEEEKCKPIKFSKASKLPKSSLDPFQLIPCNFFSEEKQEPFQVKVAAEALLIMNLHAHVSMAEVIGLLGGRYSEADKVLEVCAAEPCNSLSTGLQCEMDPVSQTQASETLALRGYSVIGWYHSHPAFDPNPSLRDIDTQAKYQSYFSRGGAKFIGMIVSPYNRSNPLPYSQITCLVISEEVSPDGTYRLPYKFEVQQMLEEPQWELVFEKTRWIIEKYRLSNSSVPMDRIFRRDSDLTCLQKLLECLRKTLSKVANCFIAEEFLTQIENLFLSNYKSKEENGLAEEDSTKELFM
